From the supplement of paper PMC12819154, “High-throughput peptide-centric local stability assay extends protein–ligand identification to membrane proteins, tissues and bacteria” (Nature Structural & Molecular Biology, 2025) come the findings set out here.

Amino acid sequences for entries named in this document (tags omitted). A change or cut given only in a name is not applied to a line headed by its entry.
UniProt Q9CQV7: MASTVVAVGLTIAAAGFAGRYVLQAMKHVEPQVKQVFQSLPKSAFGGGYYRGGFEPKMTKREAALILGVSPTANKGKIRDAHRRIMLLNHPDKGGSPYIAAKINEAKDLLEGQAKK
UniProt Q9CWK3: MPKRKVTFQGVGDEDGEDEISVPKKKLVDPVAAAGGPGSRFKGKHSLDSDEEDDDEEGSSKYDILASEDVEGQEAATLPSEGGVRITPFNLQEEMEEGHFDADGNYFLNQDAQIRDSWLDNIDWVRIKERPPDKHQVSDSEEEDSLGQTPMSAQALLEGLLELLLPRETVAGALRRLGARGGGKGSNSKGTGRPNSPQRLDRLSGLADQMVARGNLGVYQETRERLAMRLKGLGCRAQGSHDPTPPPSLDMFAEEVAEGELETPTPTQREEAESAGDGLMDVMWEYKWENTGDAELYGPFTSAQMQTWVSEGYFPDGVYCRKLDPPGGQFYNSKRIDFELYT
UniProt Q9CR64: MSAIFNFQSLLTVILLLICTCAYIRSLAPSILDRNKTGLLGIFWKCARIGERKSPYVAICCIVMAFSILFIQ
UniProt Q9CQF3, whole entry: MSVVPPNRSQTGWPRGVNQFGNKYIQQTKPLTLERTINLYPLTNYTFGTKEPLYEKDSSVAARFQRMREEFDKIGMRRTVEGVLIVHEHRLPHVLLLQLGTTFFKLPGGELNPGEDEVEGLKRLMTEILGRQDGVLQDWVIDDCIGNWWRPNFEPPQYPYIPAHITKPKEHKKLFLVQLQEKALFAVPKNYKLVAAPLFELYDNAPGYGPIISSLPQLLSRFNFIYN
UniProt Q9CWP6: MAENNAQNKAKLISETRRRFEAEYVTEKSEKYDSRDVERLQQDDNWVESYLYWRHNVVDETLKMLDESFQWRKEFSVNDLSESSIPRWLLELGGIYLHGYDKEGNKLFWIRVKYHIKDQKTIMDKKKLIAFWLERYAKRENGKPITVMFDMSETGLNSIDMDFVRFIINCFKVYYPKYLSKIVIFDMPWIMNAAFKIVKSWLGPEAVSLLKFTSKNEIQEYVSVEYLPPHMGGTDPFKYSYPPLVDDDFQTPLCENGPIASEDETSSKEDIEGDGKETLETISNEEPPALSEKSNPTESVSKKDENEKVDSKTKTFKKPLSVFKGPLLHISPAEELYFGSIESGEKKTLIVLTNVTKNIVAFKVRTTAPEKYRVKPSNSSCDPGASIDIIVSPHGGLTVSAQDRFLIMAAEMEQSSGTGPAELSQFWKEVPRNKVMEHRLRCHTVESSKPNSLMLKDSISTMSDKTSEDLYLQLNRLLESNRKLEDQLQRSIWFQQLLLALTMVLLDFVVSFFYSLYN
UniProt Q9CWV6: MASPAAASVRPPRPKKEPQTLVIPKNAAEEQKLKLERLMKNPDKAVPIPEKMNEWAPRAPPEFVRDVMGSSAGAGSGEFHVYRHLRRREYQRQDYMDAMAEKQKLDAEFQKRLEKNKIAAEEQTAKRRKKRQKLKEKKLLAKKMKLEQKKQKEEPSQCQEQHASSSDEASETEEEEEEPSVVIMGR
UniProt Q99NB9: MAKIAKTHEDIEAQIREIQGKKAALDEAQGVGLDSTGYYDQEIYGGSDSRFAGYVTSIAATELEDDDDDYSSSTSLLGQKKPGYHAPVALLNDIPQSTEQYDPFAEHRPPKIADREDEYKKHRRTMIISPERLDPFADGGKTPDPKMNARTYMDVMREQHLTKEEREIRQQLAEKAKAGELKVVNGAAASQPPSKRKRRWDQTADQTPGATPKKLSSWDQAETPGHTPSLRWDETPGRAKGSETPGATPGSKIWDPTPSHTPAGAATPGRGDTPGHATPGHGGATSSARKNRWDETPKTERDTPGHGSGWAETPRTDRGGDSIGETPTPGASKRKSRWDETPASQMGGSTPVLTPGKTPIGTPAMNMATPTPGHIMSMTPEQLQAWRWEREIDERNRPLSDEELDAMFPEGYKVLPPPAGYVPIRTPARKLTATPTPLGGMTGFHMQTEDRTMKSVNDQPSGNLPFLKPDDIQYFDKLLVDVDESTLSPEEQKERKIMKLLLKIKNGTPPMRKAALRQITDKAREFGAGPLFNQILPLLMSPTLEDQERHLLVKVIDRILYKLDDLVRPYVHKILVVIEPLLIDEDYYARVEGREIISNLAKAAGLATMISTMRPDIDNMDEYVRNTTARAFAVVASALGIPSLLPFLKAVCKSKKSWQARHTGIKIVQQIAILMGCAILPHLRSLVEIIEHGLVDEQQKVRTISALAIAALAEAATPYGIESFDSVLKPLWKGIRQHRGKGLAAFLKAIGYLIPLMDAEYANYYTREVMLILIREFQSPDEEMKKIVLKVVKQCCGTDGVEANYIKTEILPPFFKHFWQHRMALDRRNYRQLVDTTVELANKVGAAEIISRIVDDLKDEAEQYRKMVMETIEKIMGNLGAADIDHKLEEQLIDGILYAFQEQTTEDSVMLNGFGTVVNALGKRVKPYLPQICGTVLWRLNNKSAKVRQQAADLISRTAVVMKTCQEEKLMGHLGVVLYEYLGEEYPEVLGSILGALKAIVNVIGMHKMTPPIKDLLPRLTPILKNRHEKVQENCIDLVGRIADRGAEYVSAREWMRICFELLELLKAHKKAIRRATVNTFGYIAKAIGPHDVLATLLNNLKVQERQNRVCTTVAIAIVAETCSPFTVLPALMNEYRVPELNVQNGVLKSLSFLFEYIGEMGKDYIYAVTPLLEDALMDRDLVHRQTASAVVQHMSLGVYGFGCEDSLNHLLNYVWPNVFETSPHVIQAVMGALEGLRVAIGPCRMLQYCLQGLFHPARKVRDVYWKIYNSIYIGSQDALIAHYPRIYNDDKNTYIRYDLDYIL
UniProt Q9CPQ8: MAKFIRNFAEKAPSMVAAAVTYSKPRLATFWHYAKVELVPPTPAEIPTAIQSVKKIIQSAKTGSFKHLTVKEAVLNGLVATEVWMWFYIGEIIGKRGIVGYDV
UniProt Q99MN9: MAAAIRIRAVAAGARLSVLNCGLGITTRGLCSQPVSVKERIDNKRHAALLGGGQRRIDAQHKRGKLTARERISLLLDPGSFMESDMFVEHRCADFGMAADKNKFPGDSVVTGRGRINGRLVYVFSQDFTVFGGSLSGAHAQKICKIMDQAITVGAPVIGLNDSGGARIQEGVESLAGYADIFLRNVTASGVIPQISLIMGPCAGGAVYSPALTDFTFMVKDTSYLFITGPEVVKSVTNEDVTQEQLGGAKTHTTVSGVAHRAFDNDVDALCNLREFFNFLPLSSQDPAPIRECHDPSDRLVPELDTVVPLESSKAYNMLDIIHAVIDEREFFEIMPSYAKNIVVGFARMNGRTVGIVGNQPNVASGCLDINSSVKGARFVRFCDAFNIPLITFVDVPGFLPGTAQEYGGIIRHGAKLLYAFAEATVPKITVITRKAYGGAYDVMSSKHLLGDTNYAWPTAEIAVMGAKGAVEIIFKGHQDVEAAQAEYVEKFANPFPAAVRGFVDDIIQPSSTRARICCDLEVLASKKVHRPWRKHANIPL
UniProt Q9CQH3: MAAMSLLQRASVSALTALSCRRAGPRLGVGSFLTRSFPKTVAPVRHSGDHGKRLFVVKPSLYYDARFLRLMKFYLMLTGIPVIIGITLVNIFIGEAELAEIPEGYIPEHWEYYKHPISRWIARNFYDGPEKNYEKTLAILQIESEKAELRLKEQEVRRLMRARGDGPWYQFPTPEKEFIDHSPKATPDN
UniProt Q9CR67: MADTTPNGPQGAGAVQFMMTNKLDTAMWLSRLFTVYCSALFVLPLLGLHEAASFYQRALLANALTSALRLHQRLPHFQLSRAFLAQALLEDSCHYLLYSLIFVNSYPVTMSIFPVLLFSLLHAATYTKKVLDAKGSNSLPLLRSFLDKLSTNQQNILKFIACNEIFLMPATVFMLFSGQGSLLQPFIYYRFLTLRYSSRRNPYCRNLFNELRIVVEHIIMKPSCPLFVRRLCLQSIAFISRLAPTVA
UniProt Q9CXI0: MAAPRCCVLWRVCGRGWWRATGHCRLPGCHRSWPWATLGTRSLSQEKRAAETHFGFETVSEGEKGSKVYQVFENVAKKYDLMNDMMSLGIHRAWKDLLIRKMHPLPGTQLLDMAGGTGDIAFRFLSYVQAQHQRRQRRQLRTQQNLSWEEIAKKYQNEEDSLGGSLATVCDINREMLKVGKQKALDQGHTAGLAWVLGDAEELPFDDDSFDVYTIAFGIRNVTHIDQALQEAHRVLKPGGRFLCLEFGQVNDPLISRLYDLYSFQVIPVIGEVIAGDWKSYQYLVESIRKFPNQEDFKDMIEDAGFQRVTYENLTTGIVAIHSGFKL
UniProt Q99LI2: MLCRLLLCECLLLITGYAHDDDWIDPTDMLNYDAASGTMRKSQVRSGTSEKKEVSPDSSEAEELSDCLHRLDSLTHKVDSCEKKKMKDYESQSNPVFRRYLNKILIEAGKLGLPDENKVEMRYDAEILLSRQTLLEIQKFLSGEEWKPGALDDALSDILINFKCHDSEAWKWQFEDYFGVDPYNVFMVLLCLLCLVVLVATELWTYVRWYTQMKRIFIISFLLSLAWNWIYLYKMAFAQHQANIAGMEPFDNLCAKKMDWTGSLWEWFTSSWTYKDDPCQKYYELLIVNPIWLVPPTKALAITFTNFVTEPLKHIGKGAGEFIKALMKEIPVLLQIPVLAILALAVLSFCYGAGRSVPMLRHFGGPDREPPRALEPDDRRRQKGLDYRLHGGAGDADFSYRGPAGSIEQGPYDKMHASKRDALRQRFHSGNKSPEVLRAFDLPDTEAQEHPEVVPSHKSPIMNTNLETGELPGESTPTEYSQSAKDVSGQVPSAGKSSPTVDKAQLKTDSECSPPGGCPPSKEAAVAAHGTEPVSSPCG
UniProt Q9CQK7: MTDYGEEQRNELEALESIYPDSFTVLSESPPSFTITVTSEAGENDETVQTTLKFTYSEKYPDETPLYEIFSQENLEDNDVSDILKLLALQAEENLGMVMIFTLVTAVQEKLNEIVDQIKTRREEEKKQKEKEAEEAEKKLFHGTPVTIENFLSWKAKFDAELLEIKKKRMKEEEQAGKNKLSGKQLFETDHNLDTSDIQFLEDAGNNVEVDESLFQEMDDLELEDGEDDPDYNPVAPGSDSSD
UniProt Q9CQ69: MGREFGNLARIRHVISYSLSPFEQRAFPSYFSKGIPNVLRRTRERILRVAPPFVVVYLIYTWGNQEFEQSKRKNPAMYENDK
UniProt Q9CWU6: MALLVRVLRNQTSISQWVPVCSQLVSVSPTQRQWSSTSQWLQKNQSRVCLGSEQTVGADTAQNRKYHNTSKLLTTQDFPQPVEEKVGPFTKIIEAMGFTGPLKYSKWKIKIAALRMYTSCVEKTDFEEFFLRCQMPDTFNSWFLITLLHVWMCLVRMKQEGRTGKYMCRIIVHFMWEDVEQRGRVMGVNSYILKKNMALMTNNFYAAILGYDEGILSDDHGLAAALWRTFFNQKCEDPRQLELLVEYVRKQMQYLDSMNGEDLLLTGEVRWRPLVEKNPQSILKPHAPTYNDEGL
UniProt Q9CPY7: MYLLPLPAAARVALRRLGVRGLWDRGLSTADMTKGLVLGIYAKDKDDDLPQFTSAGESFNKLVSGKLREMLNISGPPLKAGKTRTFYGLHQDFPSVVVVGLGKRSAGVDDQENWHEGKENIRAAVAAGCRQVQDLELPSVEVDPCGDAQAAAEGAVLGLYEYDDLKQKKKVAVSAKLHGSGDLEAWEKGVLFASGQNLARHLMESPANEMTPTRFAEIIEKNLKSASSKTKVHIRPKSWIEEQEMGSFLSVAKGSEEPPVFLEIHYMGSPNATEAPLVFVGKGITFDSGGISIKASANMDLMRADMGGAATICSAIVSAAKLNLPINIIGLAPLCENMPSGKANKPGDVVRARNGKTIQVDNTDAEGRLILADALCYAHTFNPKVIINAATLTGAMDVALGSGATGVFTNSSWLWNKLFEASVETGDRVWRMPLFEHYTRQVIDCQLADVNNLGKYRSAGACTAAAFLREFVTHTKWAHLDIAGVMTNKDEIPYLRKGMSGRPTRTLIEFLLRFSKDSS
UniProt Q9CWJ9: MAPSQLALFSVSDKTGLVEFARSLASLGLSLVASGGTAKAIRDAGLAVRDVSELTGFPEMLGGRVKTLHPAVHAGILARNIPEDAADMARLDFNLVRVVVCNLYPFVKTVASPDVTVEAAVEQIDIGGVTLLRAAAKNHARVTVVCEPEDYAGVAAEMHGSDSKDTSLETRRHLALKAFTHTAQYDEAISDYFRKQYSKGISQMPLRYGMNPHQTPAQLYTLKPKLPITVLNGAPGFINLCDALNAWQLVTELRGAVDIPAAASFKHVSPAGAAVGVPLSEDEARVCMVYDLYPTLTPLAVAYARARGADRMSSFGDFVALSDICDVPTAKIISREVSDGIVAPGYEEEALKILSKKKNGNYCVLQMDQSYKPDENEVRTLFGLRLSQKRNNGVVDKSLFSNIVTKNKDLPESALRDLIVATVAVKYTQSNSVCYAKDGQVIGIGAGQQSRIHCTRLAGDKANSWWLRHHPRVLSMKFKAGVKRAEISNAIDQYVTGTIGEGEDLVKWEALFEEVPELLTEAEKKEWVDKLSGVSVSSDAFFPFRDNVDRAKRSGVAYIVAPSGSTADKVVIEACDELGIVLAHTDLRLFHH
UniProt Q9CR61: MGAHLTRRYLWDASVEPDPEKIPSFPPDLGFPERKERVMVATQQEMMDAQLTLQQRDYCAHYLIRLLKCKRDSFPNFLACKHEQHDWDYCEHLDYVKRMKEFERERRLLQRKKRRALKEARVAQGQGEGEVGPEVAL

The other results are listed elsewhere or left out. Most entries show no effect beyond the scatter of the controls.

Compound in this assay: CN[C@@H]1C[C@H]2O[C@@](C)([C@@H]1OC)n1c3ccccc3c3c4c(c5c6ccccc6n2c5c31)C(=O)NC4 [staurosporine]
The assay is described as follows: log2 fold change of pooled soluble protein (PISA), ligand vs vehicle (log2 ratio); higher = more thermally stabilized. Particulars: ligand concentration: 20 uM; assay format: PISA pool 52.9/55.5/58.6 C.
Regarding UniProt Q9CQV7, the “log2 fold change of pooled soluble protein” value (“log2 fold change” for short) is -0.109. For the target UniProt Q9CQ22, the “log2 fold change” value is -0.142. Take UniProt Q9CWK3: the “log2 fold change” value came out at 0.0749. Regarding UniProt Q9CR64, the “log2 fold change” value is -0.00105. Consider UniProt Q9CQF3, for which the “log2 fold change” value is -0.0594. As to UniProt Q9CQ54, the “log2 fold change” value was -0.0503. On to UniProt Q9CQ48, for which the “log2 fold change” value stood at 0.0354. As to UniProt Q99KI0, the “log2 fold change” value was -0.00589. On to UniProt Q9CWP6, for which the “log2 fold change” value was -0.0181. Regarding UniProt Q9CWV6, the “log2 fold change” value worked out at 0.148.

Regarding UniProt Q99NB9, the “log2 fold change” value is -0.122. UniProt Q9CPQ8: the “log2 fold change” value was -0.192. With UniProt Q9CRC9 the figure was 0.129; with UniProt Q99MN9, 0.00342; with UniProt Q9CQH3, 0.145.

For the target UniProt Q99PP7, the “log2 fold change” value is -0.113. Turning to UniProt Q9CR67, the “log2 fold change” value is -0.0346. Consider UniProt Q9CXI0, for which the “log2 fold change” value is -0.247.

As for UniProt Q99LI8, the “log2 fold change” value is -0.0762. UniProt Q9CQT1: the “log2 fold change” value is -0.0167. With UniProt Q99LI2 the figure was -0.0409; with UniProt Q9CQE5, -0.0763; with UniProt Q9CQK7, 0.155. UniProt Q99MI1: the “log2 fold change” value is 0.036. As for UniProt Q9CPW4, the “log2 fold change” value was -0.0199.

As for UniProt Q9CQ69, the “log2 fold change” value is -0.0748.

Take UniProt Q99MD6: the “log2 fold change” value is -0.194. UniProt Q9CWU6: the “log2 fold change” value was 0.119.

Take UniProt Q9CR16: the “log2 fold change” value is -0.102.

In the case of UniProt Q9CQN6, the “log2 fold change” value is -0.121. Take UniProt Q99LD8: the “log2 fold change” value was -0.0349. For UniProt Q9CPY7, the “log2 fold change” value was -0.356. In the case of UniProt Q9CR57, the “log2 fold change” value is -0.0562. As for UniProt Q99JP6, the “log2 fold change” value was 0.303. Consider UniProt Q9CWJ9, for which the “log2 fold change” value amounted to 0.0287. As for UniProt Q9CR61, the “log2 fold change” value was -0.202.
